{"source": "paper PMC2855705", "key": {"[1]": {"molecular_target": "T1, β-catenin unphosphorylated at serine 37 (S37) and threonine 41 (T41) (Active β-Catenin, ABC) (human (endogenous in SW480)), P35222", "T1 chain": "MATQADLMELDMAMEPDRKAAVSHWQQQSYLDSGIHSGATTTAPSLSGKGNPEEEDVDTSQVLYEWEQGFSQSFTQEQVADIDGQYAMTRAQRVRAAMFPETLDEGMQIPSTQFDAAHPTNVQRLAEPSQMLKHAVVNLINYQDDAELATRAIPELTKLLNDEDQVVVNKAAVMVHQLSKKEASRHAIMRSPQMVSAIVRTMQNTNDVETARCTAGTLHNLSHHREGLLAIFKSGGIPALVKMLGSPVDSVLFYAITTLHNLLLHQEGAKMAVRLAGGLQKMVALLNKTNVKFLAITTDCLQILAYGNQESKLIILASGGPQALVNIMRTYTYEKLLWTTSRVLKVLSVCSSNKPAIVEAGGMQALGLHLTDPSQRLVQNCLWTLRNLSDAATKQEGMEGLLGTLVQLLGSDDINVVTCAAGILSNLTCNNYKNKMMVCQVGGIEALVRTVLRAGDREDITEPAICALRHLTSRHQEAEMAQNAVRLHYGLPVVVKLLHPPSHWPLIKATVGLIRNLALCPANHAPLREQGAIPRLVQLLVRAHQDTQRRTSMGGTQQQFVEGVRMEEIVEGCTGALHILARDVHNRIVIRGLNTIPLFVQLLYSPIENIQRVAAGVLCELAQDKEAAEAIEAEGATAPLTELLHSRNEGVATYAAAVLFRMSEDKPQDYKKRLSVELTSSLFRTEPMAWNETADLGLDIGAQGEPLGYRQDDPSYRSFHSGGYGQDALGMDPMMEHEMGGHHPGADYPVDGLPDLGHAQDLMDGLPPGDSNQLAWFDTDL", "test": "SEC; detergent-free cytosolic fraction of SW480 cells (control or α-catenin shRNA) on Sephacryl S-300, 30 mM Hepes pH 7.5, 150 mM KCl; fractions TCA precipitated and immunoblotted", "conditions": "remark: other sources report otherwise"}, "[2]": {"molecular_target": "T2, Histidine and 6-myc tagged β-catenin, P35222", "T2 chain": "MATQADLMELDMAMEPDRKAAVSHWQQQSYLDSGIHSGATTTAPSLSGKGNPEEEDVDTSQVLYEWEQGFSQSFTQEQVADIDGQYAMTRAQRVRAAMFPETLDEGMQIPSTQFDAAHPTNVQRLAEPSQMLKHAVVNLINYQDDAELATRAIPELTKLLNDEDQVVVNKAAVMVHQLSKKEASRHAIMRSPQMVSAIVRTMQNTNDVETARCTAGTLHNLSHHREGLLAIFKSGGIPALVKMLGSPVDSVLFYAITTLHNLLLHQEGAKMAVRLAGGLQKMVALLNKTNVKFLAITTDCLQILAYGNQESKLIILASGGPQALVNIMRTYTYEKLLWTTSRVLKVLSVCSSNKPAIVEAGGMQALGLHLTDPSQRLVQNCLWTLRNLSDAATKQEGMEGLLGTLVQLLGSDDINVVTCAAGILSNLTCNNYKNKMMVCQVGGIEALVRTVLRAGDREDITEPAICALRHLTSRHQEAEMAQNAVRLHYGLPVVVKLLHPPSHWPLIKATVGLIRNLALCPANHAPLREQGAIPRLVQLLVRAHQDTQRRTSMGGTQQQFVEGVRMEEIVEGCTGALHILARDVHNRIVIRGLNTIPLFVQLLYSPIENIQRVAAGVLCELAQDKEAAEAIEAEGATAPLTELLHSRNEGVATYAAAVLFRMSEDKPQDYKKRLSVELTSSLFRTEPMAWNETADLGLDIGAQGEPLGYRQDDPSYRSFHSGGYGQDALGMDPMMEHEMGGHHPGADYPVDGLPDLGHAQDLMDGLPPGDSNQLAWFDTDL", "test": "SEC; ~2 mg purified His/6-myc β-catenin diluted in column equilibration buffer, sizing column; fractions blotted with anti-myc; both purified", "conditions": "remark: other sources report otherwise"}}, "note": "These are yes or no findings as the source states them, for the method shown. For some assays here: Sequences can lack the tags named with a protein."}
{"binder": "β-catenin unphosphorylated at serine 37 (S37) and threonine 41 (T41) (Active β-Catenin, ABC), P35222 1-781 (protein, here or on the partner: unphosphorylated at S37 and T41 (form recognised by monoclonal antibody 8E7); unphosphorylated at S37 and T41 (form recognised by monoclonal antibody 8E7)) MATQADLMELDMAMEPDRKAAVSHWQQQSYLDSGIHSGATTTAPSLSGKGNPEEEDVDTSQVLYEWEQGFSQSFTQEQVADIDGQYAMTRAQRVRAAMFPETLDEGMQIPSTQFDAAHPTNVQRLAEPSQMLKHAVVNLINYQDDAELATRAIPELTKLLNDEDQVVVNKAAVMVHQLSKKEASRHAIMRSPQMVSAIVRTMQNTNDVETARCTAGTLHNLSHHREGLLAIFKSGGIPALVKMLGSPVDSVLFYAITTLHNLLLHQEGAKMAVRLAGGLQKMVALLNKTNVKFLAITTDCLQILAYGNQESKLIILASGGPQALVNIMRTYTYEKLLWTTSRVLKVLSVCSSNKPAIVEAGGMQALGLHLTDPSQRLVQNCLWTLRNLSDAATKQEGMEGLLGTLVQLLGSDDINVVTCAAGILSNLTCNNYKNKMMVCQVGGIEALVRTVLRAGDREDITEPAICALRHLTSRHQEAEMAQNAVRLHYGLPVVVKLLHPPSHWPLIKATVGLIRNLALCPANHAPLREQGAIPRLVQLLVRAHQDTQRRTSMGGTQQQFVEGVRMEEIVEGCTGALHILARDVHNRIVIRGLNTIPLFVQLLYSPIENIQRVAAGVLCELAQDKEAAEAIEAEGATAPLTELLHSRNEGVATYAAAVLFRMSEDKPQDYKKRLSVELTSSLFRTEPMAWNETADLGLDIGAQGEPLGYRQDDPSYRSFHSGGYGQDALGMDPMMEHEMGGHHPGADYPVDGLPDLGHAQDLMDGLPPGDSNQLAWFDTDL", "values": [{"measurement": "binding", "setting": "[1]", "result": "no binding"}]}
{"binder": "Histidine and 6-myc tagged β-catenin, P35222 1-781 (protein) MATQADLMELDMAMEPDRKAAVSHWQQQSYLDSGIHSGATTTAPSLSGKGNPEEEDVDTSQVLYEWEQGFSQSFTQEQVADIDGQYAMTRAQRVRAAMFPETLDEGMQIPSTQFDAAHPTNVQRLAEPSQMLKHAVVNLINYQDDAELATRAIPELTKLLNDEDQVVVNKAAVMVHQLSKKEASRHAIMRSPQMVSAIVRTMQNTNDVETARCTAGTLHNLSHHREGLLAIFKSGGIPALVKMLGSPVDSVLFYAITTLHNLLLHQEGAKMAVRLAGGLQKMVALLNKTNVKFLAITTDCLQILAYGNQESKLIILASGGPQALVNIMRTYTYEKLLWTTSRVLKVLSVCSSNKPAIVEAGGMQALGLHLTDPSQRLVQNCLWTLRNLSDAATKQEGMEGLLGTLVQLLGSDDINVVTCAAGILSNLTCNNYKNKMMVCQVGGIEALVRTVLRAGDREDITEPAICALRHLTSRHQEAEMAQNAVRLHYGLPVVVKLLHPPSHWPLIKATVGLIRNLALCPANHAPLREQGAIPRLVQLLVRAHQDTQRRTSMGGTQQQFVEGVRMEEIVEGCTGALHILARDVHNRIVIRGLNTIPLFVQLLYSPIENIQRVAAGVLCELAQDKEAAEAIEAEGATAPLTELLHSRNEGVATYAAAVLFRMSEDKPQDYKKRLSVELTSSLFRTEPMAWNETADLGLDIGAQGEPLGYRQDDPSYRSFHSGGYGQDALGMDPMMEHEMGGHHPGADYPVDGLPDLGHAQDLMDGLPPGDSNQLAWFDTDL", "values": [{"measurement": "binding", "setting": "[2]", "result": "no binding"}]}
